Source: patent US4124703A (Imperial Chemical Industries Limited, priority 1976, dated 1978)

Assay: general procedure: solution-phase peptide synthesis; azide coupling (hydrazide, t-butyl nitrite/HCl in dioxan); 2,4,5-trichlorophenyl

| Substance | step yield [%] |
| --- | --- |
| L-pyroglutamyl-L-tryptophyl-L-seryl-L-tyrosyl-D-phenylalanyl-L-leucyl-L-arginyl-L-prolylazaglycine amide | 32 |
| L-pyroglutamyl-D-tryptophyl-L-tryptophyl-L-seryl-L-tyrosyl-D-phenylalanyl- L-leucyl-L-arginyl-L-prolylazaglycine amide | 30 |
| L-pyroglutamyl-D-phenylalanyl-L-tryptophyl-L-seryl-L-tyrosyl-D-phenylalanyl-L-leucyl-L-arginyl-L-prolylazaglycine amide | 59.2 |
